PubChem BioAssay AID652259, Drosophila RNAi Screening Center | 2013

Screen: 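Identify new Wingless signalling regulators in fly cells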 (primary screen)
System: Drosophila clone 8 imaginal disc epithelial cells
Knock-down reagent: long dsRNA against Drosophila genes
Conditions: pathway stimulated by co-transfected Wingless expression plasmid
Read-out: 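Firefly luciferase from a tcf-site Wingless reporter, measured alongside co-transfected Renilla luciferase that tracks transfection; pathway stimulated by a Wingless plasmid; the firefly-to-Renilla ratio is not deposited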
Reading the numbers: firefly reporter light: higher = more Wg reporter light, before normalisation; Renilla control light: higher = more transfected or surviving cells
Hit rule: 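a knock-down is a candidate when at least two out of four statistical tests show it departing from its plate mean; one test alone signals a weak candidate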
Calls: active = candidate regulator (raises or lowers reporter); inactive = not a candidate
In all, the deposit lists about 22,000 reagents; this is a random part of those with a known target gene and a result. Over the whole deposit, 233 (1.1%) were called active. 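Light values are raw, unnormalised plate reads; the ratio scores behind the reporter calls were not deposited.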 Not given: the amount of reagent, the time to read-out, the dose of the treatment.

predicted target | DRSC id | firefly reporter light, replicate 1 | firefly reporter light, replicate 2 | Renilla control light, replicate 1 | Renilla control light, replicate 2 | Outcome
bocks | DRSC16489 | 8640 | – | 3812 | – | inactive
CG15152 | DRSC02453 | 1473 | 6299 | 864 | 2418 | inactive
DIP-eta | DRSC02342 | 3428 | 6806 | 1120 | 2627 | inactive
Upf2 | DRSC18218 | 14280 | – | 7641 | – | inactive
mol | DRSC01431 | 4341 | 16361 | 1590 | 7496 | inactive
mol | DRSC01912 | 12850 | – | 1348 | – | inactive
mol | DRSC02479 | 3571 | 10512 | 1576 | 4953 | inactive
CG10587 | DRSC11627 | 10486 | – | 5051 | – | inactive
Sodq | DRSC15924 | 16323 | – | 14842 | – | inactive
Nelf-E | DRSC10567 | 2153 | 6241 | 1186 | 2985 | inactive
iotaTry | DRSC07634 | 6258 | – | 2278 | – | inactive
CG13578 | DRSC04214 | 2052 | 7079 | 763 | 2632 | inactive
CG30270 | DRSC22890 | 5.81e5 | 4.83e5 | 2.29e5 | 1.38e5 | inactive
CG10222 | DRSC09714 | 12336 | – | 2800 | – | inactive

4 of these entries in another layout.
predicted target,DRSC id,"firefly reporter light, replicate 1","firefly reporter light, replicate 2","Renilla control light, replicate 1","Renilla control light, replicate 2",Outcome
mol,DRSC01431,4341,16361,1590,7496,inactive
mol,DRSC01912,12850,,1348,,inactive
mol,DRSC02479,3571,10512,1576,4953,inactive
CG10587,DRSC11627,10486,,5051,,inactive

Continued:
predicted target | DRSC id | firefly reporter light, replicate 1 | firefly reporter light, replicate 2 | Renilla control light, replicate 1 | Renilla control light, replicate 2 | Outcome
CG32487 | DRSC21745 | 2.26e5 | 2.56e5 | 1.30e5 | 89167 | inactive
lok | DRSC03567 | 7264 | – | 2928 | – | inactive
CG8046 | DRSC07059 | 13787 | – | 2321 | – | inactive
CG13062 | DRSC09945 | 6981 | – | 3091 | – | inactive
CG6178 | DRSC15984 | 2133 | 5921 | 838 | 1707 | inactive
CG4953 | DRSC02792 | 8155 | – | 2505 | – | inactive
Nhe3 | DRSC03380 | 2512 | 7928 | 1077 | 3116 | inactive
mRpL54 | DRSC04545 | 12764 | – | 3717 | – | inactive
CG11755 | DRSC14374 | 16441 | – | 6384 | – | inactive
ND-B14 | DRSC07029 | 4521 | 4956 | 981 | 2572 | inactive
dany | DRSC04141 | 3154 | 9234 | 739 | 2439 | inactive
yip2 | DRSC03640 | 2724 | 4549 | 810 | 2131 | inactive
CG10631 | DRSC02081 | 12675 | – | 3961 | – | inactive
CG11698 | DRSC14355 | 3818 | – | 1579 | – | inactive
CG14024 | DRSC00868 | 26418 | – | 12613 | – | inactive
CG14024 | DRSC02354 | 8936 | – | 4118 | – | inactive
